Test results from publication PMC7724852.
Results are given in words; binding and its absence hold for the method and conditions named. In cells and extracts the contact can be indirect. Some binding calls cover weakened binding; strength is not graded here.

Amino acid sequences for entries named in this document (tags omitted).
UniProt Q62940: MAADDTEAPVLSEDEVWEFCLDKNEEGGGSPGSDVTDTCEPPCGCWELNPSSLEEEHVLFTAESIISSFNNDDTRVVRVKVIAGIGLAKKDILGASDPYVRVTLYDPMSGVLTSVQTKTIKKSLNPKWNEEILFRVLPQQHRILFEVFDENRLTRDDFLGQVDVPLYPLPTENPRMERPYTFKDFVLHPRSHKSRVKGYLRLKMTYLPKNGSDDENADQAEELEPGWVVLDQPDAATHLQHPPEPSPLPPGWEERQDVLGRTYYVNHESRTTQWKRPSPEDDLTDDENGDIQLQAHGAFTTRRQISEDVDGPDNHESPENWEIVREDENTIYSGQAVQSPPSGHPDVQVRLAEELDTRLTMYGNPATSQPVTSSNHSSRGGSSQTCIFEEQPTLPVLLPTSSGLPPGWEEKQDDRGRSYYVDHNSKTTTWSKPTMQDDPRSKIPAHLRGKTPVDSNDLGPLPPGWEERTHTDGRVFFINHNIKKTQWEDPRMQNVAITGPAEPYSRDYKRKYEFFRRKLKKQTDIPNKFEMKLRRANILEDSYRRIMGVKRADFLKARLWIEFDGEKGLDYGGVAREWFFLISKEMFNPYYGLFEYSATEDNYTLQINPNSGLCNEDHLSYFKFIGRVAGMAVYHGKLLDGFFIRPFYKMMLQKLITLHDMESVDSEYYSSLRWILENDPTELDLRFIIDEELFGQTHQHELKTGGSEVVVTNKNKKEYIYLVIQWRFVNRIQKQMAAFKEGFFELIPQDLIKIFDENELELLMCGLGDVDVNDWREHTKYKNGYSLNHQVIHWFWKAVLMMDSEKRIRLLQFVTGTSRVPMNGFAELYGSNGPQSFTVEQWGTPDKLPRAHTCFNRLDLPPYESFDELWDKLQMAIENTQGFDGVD

Molecular target: Neural precursor cell-expressed developmentally downregulated gene 4 (rat (endogenous in HAPI)) (UniProt Q62940)
Assay: co-IP

B1: Synaptosome associated protein 23 (protein, UniProt O70377 1-210)
chain: MDDLSPEEIQLRAHQVTDESLESTRRILGLAIESQDAGIKTITMLDEQGEQLNRIEEGMDQINKDMREAEKTLTELNKCCGLCVCPCNRTKNFESGKNYKATWGDGGDSSPSNVVSKQPSRITNGQPQQTTGAASGGYIKRITNDAREDEMEENLTQVGSILGNLKNMALDMGNEIDAQNQQIQKITEKADTNKNRIDIANTRAKKLIDS
  binding: binds
